Results deposited as PubChem BioAssay AID504784 (Drosophila RNAi Screening Center, 2011).

Assay: 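Fly genes whose silencing alters how much lipid cells keep in droplets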 (primary screen)
Cell system: Drosophila Kc167 embryonic cells
Reagents: long dsRNA against Drosophila genes, about 250 ng dsRNA per well
Time to read-out: 4 days
Challenge: cells fed 400 µM oleic acid bound to BSA
Measurement: 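Microscope images give a droplet-to-nucleus area ratio, taken as log and converted to a screen-wide B-score; higher values mean greater lipid storage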
Direction: droplet/nuclear area B-score: higher = more stored lipid (overstorage)
The screen tested about 17,000 reagents; below is an unselected part of those that have a named target and a result. 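Each column is one replicate's B-score; the combined score over replicates was not deposited, so single values may mislead.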 Reagents against one gene are numbered here. A plus sign joins genes that one reagent is predicted to hit. Not all columns of the deposit are shown.

NTPase (GeneID 33495) — droplet/nuclear area B-score, replicate 1: -0.413
CG8229 + CG33199 — droplet/nuclear area B-score, replicate 1: 4.41
Gmppb (GeneID 40599) — droplet/nuclear area B-score, replicate 1: -2.67
CG31759 (GeneID 326158) — droplet/nuclear area B-score, replicate 1: 0.396
CG16926 (GeneID 50205) — droplet/nuclear area B-score, replicate 1: 3.11
GramD1B (GeneID 33552) #1 — droplet/nuclear area B-score, replicate 1: -0.372
GramD1B (GeneID 33552) #2 — droplet/nuclear area B-score, replicate 1: -1.42
Idgf2 (GeneID 34979) — droplet/nuclear area B-score, replicate 1: -0.412
eIF3c (GeneID 37005) — droplet/nuclear area B-score, replicate 1: 3.04
naz (GeneID 42204) #1 — droplet/nuclear area B-score, replicate 1: -0.0501
naz (GeneID 42204) #2 — droplet/nuclear area B-score, replicate 1: 0.00602
Magi (GeneID 37403) #1 — droplet/nuclear area B-score, replicate 1: 1.26
Magi (GeneID 37403) #2 — droplet/nuclear area B-score, replicate 1: -1.48
Sf3b3 (GeneID 38093) — droplet/nuclear area B-score, replicate 1: 1.86
Mp20 (GeneID 36468) — droplet/nuclear area B-score, replicate 1: 0.837
CG13857 (GeneID 42627) — droplet/nuclear area B-score, replicate 1: -0.0131
CG31624 (GeneID 35393) — droplet/nuclear area B-score, replicate 1: 0.0431
TM9SF3 (GeneID 38635) — droplet/nuclear area B-score, replicate 1: 2.96
CG2336 (GeneID 40804) — droplet/nuclear area B-score, replicate 1: -0.221
RabGGTa (GeneID 40617) — droplet/nuclear area B-score, replicate 1: 1.45
CG32069 + Blos2 — droplet/nuclear area B-score, replicate 1: -0.515
CG34434 (GeneID 31472) — droplet/nuclear area B-score, replicate 1: -1.05
Frmd5 (GeneID 34398) — droplet/nuclear area B-score, replicate 1: 0.67
CG12773 (GeneID 31082) — droplet/nuclear area B-score, replicate 1: 0.575
Os-C (GeneID 40942) — droplet/nuclear area B-score, replicate 1: -1.09
CG13041 (GeneID 39801) — droplet/nuclear area B-score, replicate 1: -2.21
fon (GeneID 35211) — droplet/nuclear area B-score, replicate 1: 0.367
Ssdp (GeneID 42177) — droplet/nuclear area B-score, replicate 1: -1.1
zf30C (GeneID 34292) — droplet/nuclear area B-score, replicate 1: -0.43
CG3222 (GeneID 39114) — droplet/nuclear area B-score, replicate 1: 1.01
CG14034 (GeneID 33751) — droplet/nuclear area B-score, replicate 1: -0.149
chk (GeneID 35578) — droplet/nuclear area B-score, replicate 1: -0.536

Part of the list above, reformatted:
CG13857 (GeneID 42627)
- droplet/nuclear area B-score, replicate 1: -0.0131

CG31624 (GeneID 35393)
- droplet/nuclear area B-score, replicate 1: 0.0431

TM9SF3 (GeneID 38635)
- droplet/nuclear area B-score, replicate 1: 2.96

CG2336 (GeneID 40804)
- droplet/nuclear area B-score, replicate 1: -0.221

Continued:
sif (GeneID 43892) #1 — droplet/nuclear area B-score, replicate 1: -0.804
sif (GeneID 43892) #2 — droplet/nuclear area B-score, replicate 1: 0.00552
sif (GeneID 43892) #3 — droplet/nuclear area B-score, replicate 1: -0.00151
sif (GeneID 43892) #4 — droplet/nuclear area B-score, replicate 1: -1.44
Traf4 (GeneID 33638) #1 — droplet/nuclear area B-score, replicate 1: -0.0452
Traf4 (GeneID 33638) #2 — droplet/nuclear area B-score, replicate 1: 0.0509
mus201 + Chrac-14 #1 — droplet/nuclear area B-score, replicate 1: -0.19
mus201 + Chrac-14 #2 — droplet/nuclear area B-score, replicate 1: 0.508
CG2150 (GeneID 43745) — droplet/nuclear area B-score, replicate 1: -0.249
CG10051 (GeneID 37222) — droplet/nuclear area B-score, replicate 1: -0.334
Jupiter (GeneID 41392) #1 — droplet/nuclear area B-score, replicate 1: -2.92
Jupiter (GeneID 41392) #2 — droplet/nuclear area B-score, replicate 1: -2.65
Jupiter (GeneID 41392) #3 — droplet/nuclear area B-score, replicate 1: 1.62
CG15043 (GeneID 32835) — droplet/nuclear area B-score, replicate 1: 0.55
fit (GeneID 42578) — droplet/nuclear area B-score, replicate 1: 0.284
CG3223 (GeneID 40947) — droplet/nuclear area B-score, replicate 1: -0.87
prtp (GeneID 32124) #1 — droplet/nuclear area B-score, replicate 1: -1.17
prtp (GeneID 32124) #2 — droplet/nuclear area B-score, replicate 1: 0.289
WDR79 (GeneID 33865) — droplet/nuclear area B-score, replicate 1: -0.345
